Results as given in paper PMC6338774, “Syntheses and cytotoxicity of phosphatidylcholines containing ibuprofen or naproxen moieties” (Scientific Reports, 2019).

What was measured:
[1] = test system: human colon carcinoma Caco-2 cells; experiment: WST-1 cell proliferation assay, Caco-2 cells; assay type: cell-based; conditions: WST-1, 72 h, concentrations 50-200 µM, mean ± SD, na = not active in range tested
Experimental: (§1) Human promyelocytic leukemia HL-60 cells and human colon cancer cell line Caco-2 were obtained from the American Type Culture Collection (Manassas, VA, USA). […] (Institute of Biotechnology, Faculty of Environment and Natural Sciences, Brandenburg University of Technology Cottbus-Senftenberg, Senftenberg, Germany)[34] were cultured in DMEM medium supplemented with 10% fetal bovine serum (FBS, Invitrogen, Carlsbad, USA), 2 mM glutamine and antibiotics (complete DMEM). Cells (4 × 10^3/well) were grown for 24 h in 96-well plates (Sarstedt, Germany) in appropriate complete medium at 37 °C and atmosphere containing 5% CO2. […] After indicated periods of time, WST-1 mixture was added to each well, and the cells were cultured for additional 6 h. The absorbance at 450 nm was measured on an EnSpire 2300 Multilabel Reader (Perkin-Elmer, USA), and data were analyzed using the program EnSpire 9.0 (Perkin-Elmer, USA). The experiments were performed in triplicates and repeated at least three times independently.

[2] = test system: human promyelocytic leukemia HL-60 cells; experiment: WST-1 cell proliferation assay, HL-60 cells; assay type: cell-based; conditions: WST-1, 72 h
Experimental: as §1, with “independently. Results were presented as mean IC50 (concentration of the tested compound, that inhibits cell proliferation by 50%) ± standard deviation.” for “independently.”

For `COc1ccc2cc([C@H](C)C(=O)O)ccc2c1` [Compound 2, naproxen], the IC50 [1] was 113 ± 28.6 µM and the “concentration up to which non-toxic, HL-60 cells” value [2] was ≤ 100 µM.
